In the supplement of paper PMC12067093, “Discovery and optimisation of a covalent ligand for TRIM25 and its application to targeted protein ubiquitination” (Chemical Science, 2025):
This is one part of the list.

Sequences of proteins named here, by UniProt entry; tags and fusion partners are left off. A change or cut given only in a name is not applied to a line headed by its entry.
UniProt Q9H0K6: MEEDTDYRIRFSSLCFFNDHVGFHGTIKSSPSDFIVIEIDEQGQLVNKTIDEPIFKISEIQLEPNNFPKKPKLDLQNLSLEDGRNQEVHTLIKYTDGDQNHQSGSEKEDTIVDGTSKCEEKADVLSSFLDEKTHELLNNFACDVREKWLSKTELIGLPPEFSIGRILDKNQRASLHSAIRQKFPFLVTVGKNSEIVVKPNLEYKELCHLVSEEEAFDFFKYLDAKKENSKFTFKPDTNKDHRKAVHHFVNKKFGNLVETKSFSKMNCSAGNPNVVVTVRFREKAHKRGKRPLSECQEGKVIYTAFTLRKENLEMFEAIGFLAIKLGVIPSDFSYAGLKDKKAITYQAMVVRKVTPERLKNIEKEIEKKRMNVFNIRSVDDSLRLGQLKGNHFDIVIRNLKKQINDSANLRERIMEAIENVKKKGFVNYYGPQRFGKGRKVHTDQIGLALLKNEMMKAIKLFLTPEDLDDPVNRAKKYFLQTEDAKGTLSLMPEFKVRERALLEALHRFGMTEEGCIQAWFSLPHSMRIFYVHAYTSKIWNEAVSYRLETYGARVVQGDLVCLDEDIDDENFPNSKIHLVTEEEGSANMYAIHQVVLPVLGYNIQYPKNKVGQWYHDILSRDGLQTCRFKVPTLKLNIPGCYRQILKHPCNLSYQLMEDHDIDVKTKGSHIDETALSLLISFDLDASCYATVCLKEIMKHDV
UniProt Q9BXR0: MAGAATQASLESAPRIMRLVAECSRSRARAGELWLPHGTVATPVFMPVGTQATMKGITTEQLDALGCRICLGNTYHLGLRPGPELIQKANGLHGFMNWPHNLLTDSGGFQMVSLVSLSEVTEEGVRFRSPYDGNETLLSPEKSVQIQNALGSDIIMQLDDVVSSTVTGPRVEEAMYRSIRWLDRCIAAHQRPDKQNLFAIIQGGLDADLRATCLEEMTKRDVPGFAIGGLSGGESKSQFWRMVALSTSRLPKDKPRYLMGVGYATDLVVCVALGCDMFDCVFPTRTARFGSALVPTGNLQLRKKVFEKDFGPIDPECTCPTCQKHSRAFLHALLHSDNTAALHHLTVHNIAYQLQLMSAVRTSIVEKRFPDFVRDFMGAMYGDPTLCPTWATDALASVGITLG
UniProt Q15269: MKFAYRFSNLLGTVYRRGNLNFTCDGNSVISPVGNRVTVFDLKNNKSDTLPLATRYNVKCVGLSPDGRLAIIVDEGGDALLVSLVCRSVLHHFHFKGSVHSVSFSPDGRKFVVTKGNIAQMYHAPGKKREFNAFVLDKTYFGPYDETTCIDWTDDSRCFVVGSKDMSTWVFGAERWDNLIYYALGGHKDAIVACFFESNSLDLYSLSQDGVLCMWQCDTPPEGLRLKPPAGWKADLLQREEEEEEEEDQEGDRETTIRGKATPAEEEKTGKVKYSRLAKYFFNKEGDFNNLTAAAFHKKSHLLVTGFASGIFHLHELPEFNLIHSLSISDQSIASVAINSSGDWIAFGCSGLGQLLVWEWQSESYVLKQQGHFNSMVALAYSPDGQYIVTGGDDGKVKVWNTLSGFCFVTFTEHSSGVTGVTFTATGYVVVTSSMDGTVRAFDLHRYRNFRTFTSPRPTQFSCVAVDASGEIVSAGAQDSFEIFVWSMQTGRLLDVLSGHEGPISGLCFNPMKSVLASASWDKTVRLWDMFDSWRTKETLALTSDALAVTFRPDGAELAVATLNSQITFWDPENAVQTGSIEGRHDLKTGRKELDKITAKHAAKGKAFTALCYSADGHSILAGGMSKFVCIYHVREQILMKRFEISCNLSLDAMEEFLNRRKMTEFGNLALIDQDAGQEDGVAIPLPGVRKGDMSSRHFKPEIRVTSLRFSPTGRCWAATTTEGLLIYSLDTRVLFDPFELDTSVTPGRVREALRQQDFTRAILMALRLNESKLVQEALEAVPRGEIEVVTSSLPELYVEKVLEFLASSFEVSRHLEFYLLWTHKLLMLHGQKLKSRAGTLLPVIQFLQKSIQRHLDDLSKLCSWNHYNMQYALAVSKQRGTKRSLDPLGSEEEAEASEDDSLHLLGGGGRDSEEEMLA
UniProt Q9Y4B4: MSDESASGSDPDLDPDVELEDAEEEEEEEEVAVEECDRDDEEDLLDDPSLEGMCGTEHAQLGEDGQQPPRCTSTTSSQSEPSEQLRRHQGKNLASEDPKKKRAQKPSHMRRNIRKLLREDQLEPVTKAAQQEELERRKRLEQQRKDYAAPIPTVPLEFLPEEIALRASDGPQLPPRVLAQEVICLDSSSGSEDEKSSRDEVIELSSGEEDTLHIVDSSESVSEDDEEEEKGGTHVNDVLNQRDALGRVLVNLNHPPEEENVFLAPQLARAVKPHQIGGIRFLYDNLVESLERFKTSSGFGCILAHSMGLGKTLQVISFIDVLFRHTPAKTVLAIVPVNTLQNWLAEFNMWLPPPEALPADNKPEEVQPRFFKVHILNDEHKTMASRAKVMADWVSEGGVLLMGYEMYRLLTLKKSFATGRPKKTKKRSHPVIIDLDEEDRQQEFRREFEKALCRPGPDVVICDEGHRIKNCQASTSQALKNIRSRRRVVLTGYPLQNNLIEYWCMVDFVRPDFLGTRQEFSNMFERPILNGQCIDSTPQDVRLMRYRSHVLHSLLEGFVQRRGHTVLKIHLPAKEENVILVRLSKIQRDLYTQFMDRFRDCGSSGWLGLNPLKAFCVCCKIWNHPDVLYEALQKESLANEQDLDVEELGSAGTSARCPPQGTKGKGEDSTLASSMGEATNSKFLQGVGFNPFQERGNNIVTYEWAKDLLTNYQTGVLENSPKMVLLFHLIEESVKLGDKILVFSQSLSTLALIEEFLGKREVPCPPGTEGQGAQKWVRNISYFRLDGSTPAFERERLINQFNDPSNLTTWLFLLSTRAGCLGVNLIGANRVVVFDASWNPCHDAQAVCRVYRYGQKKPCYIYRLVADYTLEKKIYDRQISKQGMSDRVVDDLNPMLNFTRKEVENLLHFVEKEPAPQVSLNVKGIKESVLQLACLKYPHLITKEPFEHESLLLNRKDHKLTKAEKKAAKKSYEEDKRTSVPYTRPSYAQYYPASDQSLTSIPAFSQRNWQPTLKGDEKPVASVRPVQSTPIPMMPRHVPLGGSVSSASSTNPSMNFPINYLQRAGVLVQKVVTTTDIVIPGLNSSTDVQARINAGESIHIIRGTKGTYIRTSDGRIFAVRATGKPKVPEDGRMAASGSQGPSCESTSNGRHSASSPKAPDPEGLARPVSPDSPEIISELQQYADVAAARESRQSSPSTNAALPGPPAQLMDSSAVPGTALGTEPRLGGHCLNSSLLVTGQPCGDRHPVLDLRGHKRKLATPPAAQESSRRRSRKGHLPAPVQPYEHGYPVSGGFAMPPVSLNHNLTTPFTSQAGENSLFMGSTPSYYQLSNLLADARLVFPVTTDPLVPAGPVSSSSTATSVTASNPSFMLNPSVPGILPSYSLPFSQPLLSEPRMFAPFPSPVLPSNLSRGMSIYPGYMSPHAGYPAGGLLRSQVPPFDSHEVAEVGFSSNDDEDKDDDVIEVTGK
UniProt P49023, whole entry, looked up: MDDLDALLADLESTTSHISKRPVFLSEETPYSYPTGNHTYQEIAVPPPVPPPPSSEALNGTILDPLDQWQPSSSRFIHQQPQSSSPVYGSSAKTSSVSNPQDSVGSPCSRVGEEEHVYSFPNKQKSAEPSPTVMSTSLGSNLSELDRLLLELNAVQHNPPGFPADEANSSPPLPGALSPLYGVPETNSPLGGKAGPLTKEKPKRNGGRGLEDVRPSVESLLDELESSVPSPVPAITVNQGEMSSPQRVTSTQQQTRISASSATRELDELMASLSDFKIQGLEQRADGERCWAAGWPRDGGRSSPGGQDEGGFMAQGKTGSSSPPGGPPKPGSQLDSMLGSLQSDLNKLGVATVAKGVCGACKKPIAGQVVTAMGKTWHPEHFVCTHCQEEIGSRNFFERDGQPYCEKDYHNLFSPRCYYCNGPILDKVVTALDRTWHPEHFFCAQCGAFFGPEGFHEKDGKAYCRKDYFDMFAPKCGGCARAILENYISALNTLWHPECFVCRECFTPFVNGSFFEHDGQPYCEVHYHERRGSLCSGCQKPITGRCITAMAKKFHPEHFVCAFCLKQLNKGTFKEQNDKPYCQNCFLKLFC
UniProt P51149, whole entry, looked up: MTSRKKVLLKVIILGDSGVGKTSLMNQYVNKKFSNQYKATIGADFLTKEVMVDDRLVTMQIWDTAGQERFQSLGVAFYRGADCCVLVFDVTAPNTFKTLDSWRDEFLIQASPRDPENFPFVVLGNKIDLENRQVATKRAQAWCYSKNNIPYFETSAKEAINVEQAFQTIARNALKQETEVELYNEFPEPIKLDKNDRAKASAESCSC
UniProt Q9H2M9: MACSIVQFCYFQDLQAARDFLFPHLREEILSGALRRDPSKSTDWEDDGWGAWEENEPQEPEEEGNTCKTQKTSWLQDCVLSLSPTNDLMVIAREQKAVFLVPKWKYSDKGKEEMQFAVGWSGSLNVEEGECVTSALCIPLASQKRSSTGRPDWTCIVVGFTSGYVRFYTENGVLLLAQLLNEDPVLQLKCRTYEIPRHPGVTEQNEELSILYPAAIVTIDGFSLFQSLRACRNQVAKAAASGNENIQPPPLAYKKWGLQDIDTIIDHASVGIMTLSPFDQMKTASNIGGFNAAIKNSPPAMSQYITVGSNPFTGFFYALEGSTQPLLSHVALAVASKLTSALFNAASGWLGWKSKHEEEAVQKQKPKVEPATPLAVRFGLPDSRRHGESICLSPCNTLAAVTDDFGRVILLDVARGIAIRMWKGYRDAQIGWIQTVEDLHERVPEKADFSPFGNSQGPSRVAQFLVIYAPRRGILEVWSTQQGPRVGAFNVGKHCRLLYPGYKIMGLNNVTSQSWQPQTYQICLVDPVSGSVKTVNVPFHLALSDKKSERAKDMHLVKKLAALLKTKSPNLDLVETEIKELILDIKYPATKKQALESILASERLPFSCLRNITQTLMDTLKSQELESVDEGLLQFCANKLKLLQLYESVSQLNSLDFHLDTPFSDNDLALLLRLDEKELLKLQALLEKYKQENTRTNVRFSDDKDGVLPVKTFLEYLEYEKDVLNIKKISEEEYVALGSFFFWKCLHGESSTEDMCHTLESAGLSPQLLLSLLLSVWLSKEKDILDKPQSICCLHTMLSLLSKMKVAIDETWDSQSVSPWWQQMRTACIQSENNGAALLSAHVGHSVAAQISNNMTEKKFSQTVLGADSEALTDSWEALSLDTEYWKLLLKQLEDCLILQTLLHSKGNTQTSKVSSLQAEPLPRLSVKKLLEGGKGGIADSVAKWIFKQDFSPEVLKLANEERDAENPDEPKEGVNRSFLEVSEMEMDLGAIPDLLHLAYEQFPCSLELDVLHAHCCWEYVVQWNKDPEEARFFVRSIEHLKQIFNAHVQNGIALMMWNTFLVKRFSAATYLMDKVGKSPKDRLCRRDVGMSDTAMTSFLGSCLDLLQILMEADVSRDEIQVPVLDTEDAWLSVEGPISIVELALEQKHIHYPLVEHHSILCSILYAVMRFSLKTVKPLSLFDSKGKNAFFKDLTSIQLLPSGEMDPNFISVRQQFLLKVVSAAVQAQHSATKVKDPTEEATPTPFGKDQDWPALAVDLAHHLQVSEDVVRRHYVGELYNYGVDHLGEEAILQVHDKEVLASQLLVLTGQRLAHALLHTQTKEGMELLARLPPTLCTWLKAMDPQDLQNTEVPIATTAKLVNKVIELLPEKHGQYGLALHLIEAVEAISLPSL
UniProt Q9BXF6: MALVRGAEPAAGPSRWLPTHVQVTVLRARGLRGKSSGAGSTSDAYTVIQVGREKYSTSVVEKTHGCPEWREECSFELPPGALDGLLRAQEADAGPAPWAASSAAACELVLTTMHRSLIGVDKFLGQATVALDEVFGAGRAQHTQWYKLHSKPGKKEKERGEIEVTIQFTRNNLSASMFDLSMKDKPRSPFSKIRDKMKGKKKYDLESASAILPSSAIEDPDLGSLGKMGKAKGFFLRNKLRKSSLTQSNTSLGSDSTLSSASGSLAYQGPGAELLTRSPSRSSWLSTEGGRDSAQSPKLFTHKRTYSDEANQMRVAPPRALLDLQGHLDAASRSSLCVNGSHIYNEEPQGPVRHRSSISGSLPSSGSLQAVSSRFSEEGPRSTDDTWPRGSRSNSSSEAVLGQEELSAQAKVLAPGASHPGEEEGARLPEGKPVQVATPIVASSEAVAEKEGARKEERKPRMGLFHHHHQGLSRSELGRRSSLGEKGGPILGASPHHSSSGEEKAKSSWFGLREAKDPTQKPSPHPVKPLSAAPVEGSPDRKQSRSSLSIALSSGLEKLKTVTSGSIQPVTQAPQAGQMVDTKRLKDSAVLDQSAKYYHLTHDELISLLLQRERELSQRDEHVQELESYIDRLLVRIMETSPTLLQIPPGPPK

Compound: Cc1cc(ccc1-c1ccccc1)C(=O)N1CCCN(CC1)C(=O)CCl [compound 10]
Assay: probe-labelled cysteine peptide fold change vs DMSO (competition) (log2 fold change); higher = less target engagement (more negative = stronger competition)
Conditions: THP-1, incubation time: 4 h
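Also: competitive profiling in live THP-1 cells: cysteine peptides tagged with an iodoacetamide desthiobiotin (IA-DTB) probe, intensity after compound treatment relative to DMSO-treated cells.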

Row | Target | probe-labelled cysteine peptide fold change (10 µM) | probe-labelled cysteine peptide fold change (50 µM)
1 | PUS7L_Q9H0K6_207_ELCHLVSEEEAFDFFK (UniProt Q9H0K6) | 0.162 | 0.362
2 | QTRT1_Q9BXR0_317_DFGPIDPECTCPTCQK (UniProt Q9BXR0) | -0.0145 | 0.303
3 | PWP2_Q15269_863_LCSWNHYNMQYALAVSK (UniProt Q15269) | -0.0585 | 0.512
4 | RABEPK_Q7Z6M1_36_VGHSCSYLPPVGNAK (UniProt Q7Z6M1) | -0.218 | -0.0672
5 | RAD54L2_Q9Y4B4_618_AFCVCCK (UniProt Q9Y4B4) | -0.173 | -0.639
6 | RAD54L2_Q9Y4B4_453_ALCRPGPDVVICDEGHR (UniProt Q9Y4B4) | -0.126 | 0.141
7 | RABGGTA_Q92696_487_CLEVLQASDNAIESLDGVTNLPR (UniProt Q92696) | -0.111 | -0.0347
8 | PXN_P49023_443_TWHPEHFFCAQCGAFFGPEGFHEK (UniProt P49023) | 0.16 | 0.138
9 | RABGAP1_Q9Y3P9_155_LTYLGCASVNAPR (UniProt Q9Y3P9) | 0.0506 | -0.0968
10 | RAB7A_P51149_83_GADCCVLVFDVTAPNTFK (UniProt P51149) | 0.0266 | -0.0612
11 | RAI14_Q9P0K7_139_TALHYAAAQGCLQAVQILCEHK (UniProt Q9P0K7) | 0.0635 | -0.0217
12 | PWP2_Q15269_508_LLDVLSGHEGPISGLCFNPMK (UniProt Q15269) | 0.15 | -0.0271
13 | RAB3GAP2_Q9H2M9_636_SQELESVDEGLLQFCANK (UniProt Q9H2M9) | 0.0951 | 0.0894
14 | RAB11FIP5_Q9BXF6_337_SSLCVNGSHIYNEEPQGPVR (UniProt Q9BXF6) | -0.249 | -0.229

Records 12–13 from above:
Row | Target | probe-labelled cysteine peptide fold change (10 µM) | probe-labelled cysteine peptide fold change (50 µM)
12 | PWP2_Q15269_508_LLDVLSGHEGPISGLCFNPMK (UniProt Q15269) | 0.15 | -0.0271
13 | RAB3GAP2_Q9H2M9_636_SQELESVDEGLLQFCANK (UniProt Q9H2M9) | 0.0951 | 0.0894
